Laboratory results published in article PMC8741576 (Molecular Diversity, 2022).

Key:
Format in all cases: cell-based
[1] = tested on: LN-229 glioblastoma cells; test: Antiproliferative screening, MTS cell viability assay; conditions: Homo sapiens, LN-229, read-out: IC50 LN-229
[2] = tested on: DND-41 acute lymphoblastic leukemia cells; test: Antiproliferative screening, IncuCyte cell growth; conditions: Homo sapiens, DND41, read-out: IC50 DND-41
[3] = tested on: K-562 chronic myeloid leukemia cells; test: Antiproliferative screening, IncuCyte cell growth; conditions: Homo sapiens, K562, read-out: IC50 K-562
[4] = tested on: Z-138 non-Hodgkin lymphoma cells; test: Antiproliferative screening, IncuCyte cell growth; conditions: Homo sapiens, Z-138, read-out: IC50 Z-138

CN[C@@H]1C[C@H]2O[C@@](C)([C@@H]1OC)n1c3ccccc3c3c4c(c5c6ccccc6n2c5c31)C(=O)NC4 [STS, staurosporine, reference compound]
IC50 [1]: 51.1 ± 3 nM
IC50 [2]: 40.7 ± 3 nM
IC50 [3]: 73.9 ± 3 nM
IC50 [4]: 40.7 ± 3 nM
